Measured values published in the supplement of paper PMC7666118.
The other results are listed elsewhere or left out.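 How the source made its calls: active = dose-dependent thermal stabilisation significant by F-test of dose-response against flat model at 10% FDR; inactive = not significant.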

The chains behind the UniProt entries cited, without tags or fusion partners. Where a name states a change or a piece, a line headed by the entry shows the natural chain unless it says otherwise.
UniProt P43243: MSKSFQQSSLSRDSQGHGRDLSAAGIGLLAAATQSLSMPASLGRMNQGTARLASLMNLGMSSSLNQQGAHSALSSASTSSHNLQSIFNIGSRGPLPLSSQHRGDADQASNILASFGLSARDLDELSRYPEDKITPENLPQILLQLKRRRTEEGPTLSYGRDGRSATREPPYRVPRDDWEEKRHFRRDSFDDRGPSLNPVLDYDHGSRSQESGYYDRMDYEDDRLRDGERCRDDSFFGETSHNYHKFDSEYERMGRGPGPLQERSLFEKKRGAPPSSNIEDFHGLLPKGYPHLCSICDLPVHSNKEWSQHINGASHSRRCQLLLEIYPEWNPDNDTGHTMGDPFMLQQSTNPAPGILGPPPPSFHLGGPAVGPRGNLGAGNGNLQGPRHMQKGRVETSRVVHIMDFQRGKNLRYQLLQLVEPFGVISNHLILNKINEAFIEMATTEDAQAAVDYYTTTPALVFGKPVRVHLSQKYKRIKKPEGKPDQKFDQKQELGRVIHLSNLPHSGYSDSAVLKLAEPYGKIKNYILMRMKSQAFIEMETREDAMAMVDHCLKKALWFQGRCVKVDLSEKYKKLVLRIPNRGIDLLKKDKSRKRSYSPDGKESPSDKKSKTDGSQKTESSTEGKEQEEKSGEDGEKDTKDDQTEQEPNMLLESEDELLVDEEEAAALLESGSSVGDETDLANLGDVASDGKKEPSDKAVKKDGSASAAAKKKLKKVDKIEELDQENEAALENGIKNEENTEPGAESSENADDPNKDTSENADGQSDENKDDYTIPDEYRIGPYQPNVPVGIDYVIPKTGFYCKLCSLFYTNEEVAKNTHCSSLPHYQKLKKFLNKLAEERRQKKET
UniProt P55145: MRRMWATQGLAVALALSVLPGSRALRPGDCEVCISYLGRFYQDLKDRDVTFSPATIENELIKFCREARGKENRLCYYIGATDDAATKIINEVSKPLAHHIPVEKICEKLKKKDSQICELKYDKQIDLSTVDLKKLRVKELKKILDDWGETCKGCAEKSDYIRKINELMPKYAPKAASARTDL
UniProt P40925: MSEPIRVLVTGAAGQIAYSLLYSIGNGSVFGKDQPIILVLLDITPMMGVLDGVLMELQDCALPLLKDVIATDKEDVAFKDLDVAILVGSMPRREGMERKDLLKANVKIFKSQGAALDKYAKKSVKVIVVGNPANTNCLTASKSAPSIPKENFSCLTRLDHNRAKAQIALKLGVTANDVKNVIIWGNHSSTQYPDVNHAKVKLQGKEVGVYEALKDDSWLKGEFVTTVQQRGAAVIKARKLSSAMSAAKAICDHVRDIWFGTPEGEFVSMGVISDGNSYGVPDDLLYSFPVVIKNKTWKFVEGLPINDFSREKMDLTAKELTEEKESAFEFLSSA
UniProt Q9NQ29: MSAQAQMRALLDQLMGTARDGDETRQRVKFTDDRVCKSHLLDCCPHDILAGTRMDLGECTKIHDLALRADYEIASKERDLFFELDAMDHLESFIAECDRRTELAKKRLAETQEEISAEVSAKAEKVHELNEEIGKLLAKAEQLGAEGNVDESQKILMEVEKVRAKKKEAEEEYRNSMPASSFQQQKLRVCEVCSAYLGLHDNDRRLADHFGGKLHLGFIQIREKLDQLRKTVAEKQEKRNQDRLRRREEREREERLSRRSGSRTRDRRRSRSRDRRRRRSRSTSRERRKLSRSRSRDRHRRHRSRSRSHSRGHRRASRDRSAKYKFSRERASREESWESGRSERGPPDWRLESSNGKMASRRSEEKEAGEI
UniProt P34949: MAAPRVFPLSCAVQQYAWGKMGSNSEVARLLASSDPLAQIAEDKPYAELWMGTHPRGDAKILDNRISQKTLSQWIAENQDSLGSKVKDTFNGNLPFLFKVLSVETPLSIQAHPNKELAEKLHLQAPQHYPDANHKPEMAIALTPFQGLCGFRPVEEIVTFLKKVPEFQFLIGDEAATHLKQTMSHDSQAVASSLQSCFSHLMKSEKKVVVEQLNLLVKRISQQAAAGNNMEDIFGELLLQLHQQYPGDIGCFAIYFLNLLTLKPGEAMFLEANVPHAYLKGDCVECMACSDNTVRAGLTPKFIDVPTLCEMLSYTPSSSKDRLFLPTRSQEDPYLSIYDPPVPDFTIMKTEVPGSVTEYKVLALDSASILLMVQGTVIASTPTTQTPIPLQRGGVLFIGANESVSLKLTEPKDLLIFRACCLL
UniProt Q9BQP7: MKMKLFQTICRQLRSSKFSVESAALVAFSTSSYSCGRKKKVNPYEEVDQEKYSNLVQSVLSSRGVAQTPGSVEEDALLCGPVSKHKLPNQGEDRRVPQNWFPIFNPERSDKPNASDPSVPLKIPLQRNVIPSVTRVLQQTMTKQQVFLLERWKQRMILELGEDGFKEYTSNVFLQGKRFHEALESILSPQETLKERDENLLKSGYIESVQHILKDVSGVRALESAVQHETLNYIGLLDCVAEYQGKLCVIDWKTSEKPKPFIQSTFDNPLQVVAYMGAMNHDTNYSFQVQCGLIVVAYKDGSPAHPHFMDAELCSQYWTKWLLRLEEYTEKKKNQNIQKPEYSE
UniProt Q8NCE2: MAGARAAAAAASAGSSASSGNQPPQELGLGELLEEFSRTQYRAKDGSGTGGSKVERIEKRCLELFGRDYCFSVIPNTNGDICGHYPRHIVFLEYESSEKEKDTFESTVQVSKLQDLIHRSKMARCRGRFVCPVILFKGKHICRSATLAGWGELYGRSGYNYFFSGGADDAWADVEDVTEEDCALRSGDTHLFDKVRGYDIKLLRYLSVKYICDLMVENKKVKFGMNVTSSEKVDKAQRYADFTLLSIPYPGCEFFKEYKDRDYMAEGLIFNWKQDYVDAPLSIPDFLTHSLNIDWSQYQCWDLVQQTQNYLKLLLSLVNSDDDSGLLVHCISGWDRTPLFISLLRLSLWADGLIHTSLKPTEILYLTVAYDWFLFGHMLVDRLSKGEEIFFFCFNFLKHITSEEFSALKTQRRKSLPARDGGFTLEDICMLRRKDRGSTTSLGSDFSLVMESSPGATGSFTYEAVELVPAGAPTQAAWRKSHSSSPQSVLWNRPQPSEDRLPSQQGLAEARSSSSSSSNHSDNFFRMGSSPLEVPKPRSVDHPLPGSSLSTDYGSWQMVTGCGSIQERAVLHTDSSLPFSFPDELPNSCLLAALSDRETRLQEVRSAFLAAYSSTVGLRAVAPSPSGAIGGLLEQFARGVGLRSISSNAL
UniProt P58546, whole entry: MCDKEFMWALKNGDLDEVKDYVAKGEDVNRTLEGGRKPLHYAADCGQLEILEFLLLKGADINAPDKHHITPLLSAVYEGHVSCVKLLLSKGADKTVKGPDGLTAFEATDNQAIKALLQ

Compound: Nc1nc2c(ncn2[C@@H]2O[C@H](COP(=O)(O)OP(=O)(O)OP(=O)(O)O)[C@@H](O)[C@H]2O)c(=O)[nH]1
Test: dose-dependent thermal stabilisation call (2D-TPP, DLPTP, 10% FDR) (binary (1 = stabilised)); higher = stabilised by the compound
Conditions: system: Jurkat gel-filtered lysate; concentration range 1-500 µM

MAPK9 (UniProt P45984)
dose-dependent thermal stabilisation call: inactive: 0

MATR3 (UniProt P43243)
dose-dependent thermal stabilisation call: inactive: 0

MANF (UniProt P55145)
dose-dependent thermal stabilisation call: inactive: 0

MDH1 (UniProt P40925)
dose-dependent thermal stabilisation call: active: 1

LUC7L (UniProt Q9NQ29)
dose-dependent thermal stabilisation call: active: 1

MPI (UniProt P34949)
dose-dependent thermal stabilisation call: inactive: 0

MGME1 (UniProt Q9BQP7)
dose-dependent thermal stabilisation call: inactive: 0

MTMR14 (UniProt Q8NCE2)
dose-dependent thermal stabilisation call: inactive: 0

MTPN (UniProt P58546)
dose-dependent thermal stabilisation call: inactive: 0
